Literature values in patent US6380238B1, “Indoline derivatives as 5-HT2B and or 5-HTC receptor ligands” (Vernalis Research Limited, priority 1998, dated 2002).
At least one compound was matched to its structure with a doubt left.

Conditions: cited from earlier work

FC(F)(F)c1cccc(N2CCNCC2)c1 [TFMPP, trifluoromethylphenylpiperazine]
appearance of the behavioural satiety sequence (rat, in vivo): accelerate the appearance of the behavioural satiety sequence | food intake in rats (rats): reduce food intake
